Reference: PMC6033357
No constants are given. Whether binding was seen depends on the method and setting. Binding seen in cells or lysates may run through a third protein. These calls come from enrichment with a bait or labelling near it, and not all partners need be listed. A no says only that the protein was not detected with the bait. For some assays here: Tags and fused reporters may be left off the sequences shown. Each block holds one molecule with its values, some of them ahead of it.

Amino acid sequences for entries named in this document (tags omitted).
UniProt Q9UKL0: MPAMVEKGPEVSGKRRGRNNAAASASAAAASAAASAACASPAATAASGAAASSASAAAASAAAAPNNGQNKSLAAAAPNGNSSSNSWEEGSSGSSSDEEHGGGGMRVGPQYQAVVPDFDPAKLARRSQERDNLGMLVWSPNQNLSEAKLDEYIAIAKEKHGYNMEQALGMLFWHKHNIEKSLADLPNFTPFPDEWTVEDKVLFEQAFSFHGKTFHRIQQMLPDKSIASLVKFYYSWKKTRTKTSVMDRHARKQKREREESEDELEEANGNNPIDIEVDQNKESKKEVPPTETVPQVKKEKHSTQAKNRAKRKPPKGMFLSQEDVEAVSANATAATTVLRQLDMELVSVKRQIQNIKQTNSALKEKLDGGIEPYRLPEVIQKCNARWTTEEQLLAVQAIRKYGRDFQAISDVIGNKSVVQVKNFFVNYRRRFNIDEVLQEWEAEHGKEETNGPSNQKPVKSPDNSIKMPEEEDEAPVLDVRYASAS
UniProt Q9Y6Q9: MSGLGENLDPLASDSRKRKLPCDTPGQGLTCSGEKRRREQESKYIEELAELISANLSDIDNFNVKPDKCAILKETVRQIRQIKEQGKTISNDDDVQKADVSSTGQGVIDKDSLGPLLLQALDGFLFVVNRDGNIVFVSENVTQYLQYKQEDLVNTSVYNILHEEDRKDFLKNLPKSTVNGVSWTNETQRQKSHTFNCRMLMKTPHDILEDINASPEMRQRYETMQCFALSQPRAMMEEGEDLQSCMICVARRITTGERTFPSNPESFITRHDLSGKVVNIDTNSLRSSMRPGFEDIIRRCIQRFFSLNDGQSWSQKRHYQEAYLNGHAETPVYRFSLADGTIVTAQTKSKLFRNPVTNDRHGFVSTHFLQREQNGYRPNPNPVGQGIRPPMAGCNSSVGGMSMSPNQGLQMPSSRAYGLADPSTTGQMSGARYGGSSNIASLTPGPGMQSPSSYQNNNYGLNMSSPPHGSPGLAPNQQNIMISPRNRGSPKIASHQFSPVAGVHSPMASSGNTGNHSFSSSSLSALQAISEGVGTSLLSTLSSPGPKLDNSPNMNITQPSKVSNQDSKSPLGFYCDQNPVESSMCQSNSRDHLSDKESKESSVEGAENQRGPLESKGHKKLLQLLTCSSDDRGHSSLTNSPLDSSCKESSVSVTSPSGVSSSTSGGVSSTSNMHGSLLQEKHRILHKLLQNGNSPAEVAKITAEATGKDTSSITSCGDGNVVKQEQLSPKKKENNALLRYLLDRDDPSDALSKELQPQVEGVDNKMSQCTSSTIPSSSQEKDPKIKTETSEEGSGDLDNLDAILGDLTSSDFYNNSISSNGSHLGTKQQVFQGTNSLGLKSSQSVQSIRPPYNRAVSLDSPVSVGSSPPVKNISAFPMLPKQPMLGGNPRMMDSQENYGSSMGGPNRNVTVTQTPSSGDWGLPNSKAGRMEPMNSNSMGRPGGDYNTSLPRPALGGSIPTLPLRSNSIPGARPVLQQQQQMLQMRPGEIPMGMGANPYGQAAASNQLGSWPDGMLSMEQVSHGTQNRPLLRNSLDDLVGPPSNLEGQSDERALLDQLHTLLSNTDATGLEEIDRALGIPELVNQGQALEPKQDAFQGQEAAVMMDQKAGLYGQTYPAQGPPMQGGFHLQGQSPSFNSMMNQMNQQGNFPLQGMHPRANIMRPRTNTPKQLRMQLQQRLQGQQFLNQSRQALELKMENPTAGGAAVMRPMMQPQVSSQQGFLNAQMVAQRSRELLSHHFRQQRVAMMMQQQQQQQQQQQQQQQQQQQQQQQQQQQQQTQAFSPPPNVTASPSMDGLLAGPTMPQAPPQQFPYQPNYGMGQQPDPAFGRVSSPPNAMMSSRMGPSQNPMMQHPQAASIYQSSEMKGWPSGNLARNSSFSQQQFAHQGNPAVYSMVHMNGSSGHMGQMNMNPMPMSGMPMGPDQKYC
UniProt O15379: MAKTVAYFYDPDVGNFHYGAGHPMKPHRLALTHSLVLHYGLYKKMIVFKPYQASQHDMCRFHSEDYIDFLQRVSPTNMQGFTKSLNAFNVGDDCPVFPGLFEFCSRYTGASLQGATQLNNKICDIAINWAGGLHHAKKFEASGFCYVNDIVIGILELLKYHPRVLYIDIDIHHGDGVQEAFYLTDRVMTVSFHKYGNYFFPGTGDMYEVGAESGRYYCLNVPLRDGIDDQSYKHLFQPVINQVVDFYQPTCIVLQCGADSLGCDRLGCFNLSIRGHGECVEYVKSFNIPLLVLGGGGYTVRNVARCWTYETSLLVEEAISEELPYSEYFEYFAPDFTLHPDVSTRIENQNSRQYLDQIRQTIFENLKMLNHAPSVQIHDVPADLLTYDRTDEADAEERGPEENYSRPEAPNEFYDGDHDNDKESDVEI
UniProt O75376: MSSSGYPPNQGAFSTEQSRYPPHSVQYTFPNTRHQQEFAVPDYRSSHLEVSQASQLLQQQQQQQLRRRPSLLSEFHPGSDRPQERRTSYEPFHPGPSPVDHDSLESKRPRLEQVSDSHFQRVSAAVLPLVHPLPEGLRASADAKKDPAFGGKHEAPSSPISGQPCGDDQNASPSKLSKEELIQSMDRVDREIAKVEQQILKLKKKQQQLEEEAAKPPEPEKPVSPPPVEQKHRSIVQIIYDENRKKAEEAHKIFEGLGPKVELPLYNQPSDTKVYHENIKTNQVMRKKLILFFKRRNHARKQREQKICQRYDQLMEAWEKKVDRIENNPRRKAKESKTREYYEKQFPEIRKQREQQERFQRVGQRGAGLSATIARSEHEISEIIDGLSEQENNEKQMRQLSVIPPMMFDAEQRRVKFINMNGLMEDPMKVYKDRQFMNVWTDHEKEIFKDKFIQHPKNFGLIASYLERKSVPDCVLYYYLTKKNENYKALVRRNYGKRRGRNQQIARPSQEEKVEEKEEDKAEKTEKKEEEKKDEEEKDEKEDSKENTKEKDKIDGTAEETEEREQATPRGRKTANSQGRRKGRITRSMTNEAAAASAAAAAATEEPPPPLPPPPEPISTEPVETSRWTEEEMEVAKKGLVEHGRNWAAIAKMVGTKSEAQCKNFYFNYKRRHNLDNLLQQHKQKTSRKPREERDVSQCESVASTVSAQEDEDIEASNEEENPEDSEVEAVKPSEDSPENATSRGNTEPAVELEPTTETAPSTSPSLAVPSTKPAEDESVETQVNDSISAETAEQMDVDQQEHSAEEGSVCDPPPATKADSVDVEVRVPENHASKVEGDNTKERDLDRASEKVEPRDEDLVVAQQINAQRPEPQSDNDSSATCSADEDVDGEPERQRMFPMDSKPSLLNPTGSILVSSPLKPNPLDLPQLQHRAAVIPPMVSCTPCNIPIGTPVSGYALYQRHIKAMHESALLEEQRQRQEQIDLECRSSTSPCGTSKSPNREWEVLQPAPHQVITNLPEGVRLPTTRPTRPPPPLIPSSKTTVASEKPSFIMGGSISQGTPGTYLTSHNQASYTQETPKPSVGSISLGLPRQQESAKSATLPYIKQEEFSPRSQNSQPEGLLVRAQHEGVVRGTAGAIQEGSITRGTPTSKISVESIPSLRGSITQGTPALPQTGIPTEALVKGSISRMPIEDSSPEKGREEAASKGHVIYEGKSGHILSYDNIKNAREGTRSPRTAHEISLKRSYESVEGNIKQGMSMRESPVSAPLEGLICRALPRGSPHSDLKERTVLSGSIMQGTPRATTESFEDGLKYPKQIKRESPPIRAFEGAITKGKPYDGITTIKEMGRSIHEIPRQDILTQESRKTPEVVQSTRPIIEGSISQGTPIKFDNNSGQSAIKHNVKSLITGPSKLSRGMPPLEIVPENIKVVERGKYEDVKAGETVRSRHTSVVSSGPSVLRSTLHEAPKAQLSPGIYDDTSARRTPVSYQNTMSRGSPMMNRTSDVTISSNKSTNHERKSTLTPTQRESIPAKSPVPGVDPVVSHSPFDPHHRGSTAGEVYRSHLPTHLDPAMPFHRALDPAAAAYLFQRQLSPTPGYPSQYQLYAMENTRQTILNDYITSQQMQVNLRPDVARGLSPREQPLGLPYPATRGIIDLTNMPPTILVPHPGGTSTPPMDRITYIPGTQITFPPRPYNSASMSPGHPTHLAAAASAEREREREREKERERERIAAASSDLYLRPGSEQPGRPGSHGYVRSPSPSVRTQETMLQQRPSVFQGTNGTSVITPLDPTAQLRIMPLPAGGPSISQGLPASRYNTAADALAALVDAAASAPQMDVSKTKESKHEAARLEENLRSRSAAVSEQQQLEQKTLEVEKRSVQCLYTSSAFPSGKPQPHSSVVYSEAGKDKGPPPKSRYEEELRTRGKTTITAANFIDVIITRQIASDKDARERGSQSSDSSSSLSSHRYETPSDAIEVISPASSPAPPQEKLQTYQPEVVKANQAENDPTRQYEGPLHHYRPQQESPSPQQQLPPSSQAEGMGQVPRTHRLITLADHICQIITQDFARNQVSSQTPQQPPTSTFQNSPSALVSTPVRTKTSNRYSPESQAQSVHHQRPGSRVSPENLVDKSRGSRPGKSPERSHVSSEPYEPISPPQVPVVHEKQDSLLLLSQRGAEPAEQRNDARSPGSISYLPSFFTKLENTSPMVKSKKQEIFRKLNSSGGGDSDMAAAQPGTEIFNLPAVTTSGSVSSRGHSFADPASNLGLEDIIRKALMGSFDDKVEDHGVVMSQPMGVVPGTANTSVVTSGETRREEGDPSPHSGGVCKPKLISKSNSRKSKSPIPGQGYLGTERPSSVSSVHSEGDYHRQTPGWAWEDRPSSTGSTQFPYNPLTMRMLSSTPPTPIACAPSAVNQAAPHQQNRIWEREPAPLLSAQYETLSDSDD

Columns and labels:
[1] = biological target: T1, Nucleus accumbens-associated protein 1 (NAC1), endogenous (human (endogenous in HeLa, ovarian cancer cell lines and HEK293T)) (UniProt Q96RE7); experiment: affinity purification with mass spectrometry; 1% (v/v) Triton X-100 HeLa lysate fractionated by FPLC on Superdex 200 Increase 10/300 GL; fractions 18 to 20 immunoprecipitated with anti-NAC1 antibody; SDS-PAGE, silver-stained bands excised, LC-MS/MS
T1 sequence: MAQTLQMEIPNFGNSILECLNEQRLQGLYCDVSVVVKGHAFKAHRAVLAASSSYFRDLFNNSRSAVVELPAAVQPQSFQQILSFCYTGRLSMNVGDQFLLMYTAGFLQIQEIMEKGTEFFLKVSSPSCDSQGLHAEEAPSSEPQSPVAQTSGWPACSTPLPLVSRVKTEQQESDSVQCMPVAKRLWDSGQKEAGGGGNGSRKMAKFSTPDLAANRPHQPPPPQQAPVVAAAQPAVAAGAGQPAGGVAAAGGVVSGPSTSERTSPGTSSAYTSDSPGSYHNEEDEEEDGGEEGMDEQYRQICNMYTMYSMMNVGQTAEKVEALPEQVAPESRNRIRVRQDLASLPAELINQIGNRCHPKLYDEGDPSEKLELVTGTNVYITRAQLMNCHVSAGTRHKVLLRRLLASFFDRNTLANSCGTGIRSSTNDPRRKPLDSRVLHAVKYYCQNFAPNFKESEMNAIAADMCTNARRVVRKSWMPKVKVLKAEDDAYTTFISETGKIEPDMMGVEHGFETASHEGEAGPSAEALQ

[2] = biological target: T2, Nucleus accumbens-associated protein 1 (NAC1), endogenous (human (endogenous in HeLa, ovarian cancer cell lines and HEK293T)), Q96RE7; experiment: as above; details: remark: other sources report otherwise
T2 chain: T1 sequence

Molecule: REST corepressor 1 (CoREST) (from UniProt Q9UKL0 1-485)
binding [1]: no binding

Molecule: Nuclear receptor coactivator 3 (NCoA3), endogenous (from UniProt Q9Y6Q9 1-1424)
binding [1]: binds

Molecule: Histone deacetylase HDAC3 (from UniProt O15379 1-428) (enzyme)
binding [1]: no binding

Second part, the molecule after the results:

binding [1]: no binding
Molecule: Nuclear receptor corepressor 1 (NCoR) (from UniProt O75376 1-2440)

binding [2]: no binding
B1: Histone deacetylase HDAC4, P56524 1-1084 (enzyme)
chain: MSSQSHPDGLSGRDQPVELLNPARVNHMPSTVDVATALPLQVAPSAVPMDLRLDHQFSLPVAEPALREQQLQQELLALKQKQQIQRQILIAEFQRQHEQLSRQHEAQLHEHIKQQQEMLAMKHQQELLEHQRKLERHRQEQELEKQHREQKLQQLKNKEKGKESAVASTEVKMKLQEFVLNKKKALAHRNLNHCISSDPRYWYGKTQHSSLDQSSPPQSGVSTSYNHPVLGMYDAKDDFPLRKTASEPNLKLRSRLKQKVAERRSSPLLRRKDGPVVTALKKRPLDVTDSACSSAPGSGPSSPNNSSGSVSAENGIAPAVPSIPAETSLAHRLVAREGSAAPLPLYTSPSLPNITLGLPATGPSAGTAGQQDAERLTLPALQQRLSLFPGTHLTPYLSTSPLERDGGAAHSPLLQHMVLLEQPPAQAPLVTGLGALPLHAQSLVGADRVSPSIHKLRQHRPLGRTQSAPLPQNAQALQHLVIQQQHQQFLEKHKQQFQQQQLQMNKIIPKPSEPARQPESHPEETEEELREHQALLDEPYLDRLPGQKEAHAQAGVQVKQEPIESDEEEAEPPREVEPGQRQPSEQELLFRQQALLLEQQRIHQLRNYQASMEAAGIPVSFGGHRPLSRAQSSPASATFPVSVQEPPTKPRFTTGLVYDTLMLKHQCTCGSSSSHPEHAGRIQSIWSRLQETGLRGKCECIRGRKATLEELQTVHSEAHTLLYGTNPLNRQKLDSKKLLGSLASVFVRLPCGGVGVDSDTIWNEVHSAGAARLAVGCVVELVFKVATGELKNGFAVVRPPGHHAEESTPMGFCYFNSVAVAAKLLQQRLSVSKILIVDWDVHHGNGTQQAFYSDPSVLYMSLHRYDDGNFFPGSGAPDEVGTGPGVGFNVNMAFTGGLDPPMGDAEYLAAFRTVVMPIASEFAPDVVLVSSGFDAVEGHPTPLGGYNLSARCFGYLTKQLMGLAGGRIVLALEGGHDLTAICDASEACVSALLGNELDPLPEKVLQQRPNANAVRSMEKVMEIHSKYWRCLQRTTSTAGRSLIEAQTCENEEAETVTAMASLSVGVKPAEKRPDEEPMEEEPPL
